Experimental data taken from article PMC11789580.
Results are given in words; binding and its absence hold for the method and conditions named. In cells and extracts the contact can be indirect. These calls come from enrichment with a bait or labelling near it, and not all partners need be listed.

Molecular target: T1, MORF2 of the MORF2 overexpression line (MORF2OX) (Arabidopsis) (UniProt O22793)
T1 sequence: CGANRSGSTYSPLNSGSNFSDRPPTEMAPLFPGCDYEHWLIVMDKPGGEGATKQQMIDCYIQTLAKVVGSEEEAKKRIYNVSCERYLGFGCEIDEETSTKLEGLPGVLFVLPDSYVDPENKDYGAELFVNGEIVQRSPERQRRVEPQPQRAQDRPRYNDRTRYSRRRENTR
Assay: affinity purification with mass spectrometry; Co-IP of MORF2 from the MORF2 overexpression line (MORF2OX), wild type as negative control; carried out previously (ref. 31), RPOTp counts shown in Figure 1A

B1: RPOTp (endogenous, Arabidopsis) (enzyme, UniProt O24600 96-993)
chain: AGTIKGASLIEELENPVERNGLSGRRRLFMQDPPWISALFLKGLSKMVDQTLKIERKDIDKRKFDSLRRRQVKEETEAWERMVDEYRDLEKEMCEKNLAPNLPYVKHMFLGWFQPLKDVIEREQKLQKNKSKKVRAAYAPHIELLPADKMAVIVMHKMMGLVMSGHEDGCIQVVQAAVSIGIAIEQEVRIHNFLKRTRKNNAGDSQEELKEKQLLRKRVNSLIRRKRIIDALKVVKSEGTKPWGRATQAKLGSRLLELLIEAAYVQPPLTQSGDSIPEFRPAFRHRFKTVTKYPGSKLVRRYGVIECDSLLLAGLDKSAKHMLIPYVPMLVPPKRWKGYDKGGYLFLPSYIMRTHGSKKQQDALKDISHKTAHRVFEALDTLGNTKWRVNRNILDVVERLWADGGNIAGLVNREDVPIPEKPSSEDPEELQSWKWSARKANKINRERHSLRCDVELKLSVARKMKDEEGFYYPHNLDFRGRAYPMHPHLNHLSSDLCRGTLEFAEGRPLGKSGLHWLKIHLANLYAGGVEKLSHDARLAFVENHLDDIMDSAENPIHGKRWWLKAEDPFQCLAACVILTQALKSPSPYSVISHLPIHQDGSCNGLQHYAALGRDSFEAAAVNLVAGEKPADVYSEISRRVHEIMKKDSSKDPESNPTAALAKILITQVDRKLVKQTVMTSVYGVTYVGAREQIKRRLEEKGVITDERMLFAAACYSAKVTLAALGEIFEAARAIMSWLGDCAKIIASDNHPVRWITPLGLPVVQPYCRSERHLIRTSLQVLALQREGNTVDVRKQRTAFPPNFVHSLDGTHMMMTAVACREAGLNFAGVHDSYWTHACDVDTMNRILREKFVELYNTPILEDLLQSFQESYPNLVFPPVPKRGDFDLKEVLKSQYFFN
B1 was tested, and the binding was “binds”.
